This series deals with eIF4A (UniProt P60843). The series is described as follows: binding assay. The settings on record: Toeprinting: 40 mM Tris-OAc pH 7.5, 110 mM KCl, 1.7 mM Mg(OAc)2, 2 mM DTT, 0.25 mM spermidine, 0.4 mM GMP-PNP, 0.1 mM EDTA; 2 mM ATP:Mg or AMP-PNP:Mg; 40 nM mRNA; letters put together from the description.

Sequences of proteins named here, by UniProt entry; tags and fusion partners are left off.
UniProt P60843, whole entry: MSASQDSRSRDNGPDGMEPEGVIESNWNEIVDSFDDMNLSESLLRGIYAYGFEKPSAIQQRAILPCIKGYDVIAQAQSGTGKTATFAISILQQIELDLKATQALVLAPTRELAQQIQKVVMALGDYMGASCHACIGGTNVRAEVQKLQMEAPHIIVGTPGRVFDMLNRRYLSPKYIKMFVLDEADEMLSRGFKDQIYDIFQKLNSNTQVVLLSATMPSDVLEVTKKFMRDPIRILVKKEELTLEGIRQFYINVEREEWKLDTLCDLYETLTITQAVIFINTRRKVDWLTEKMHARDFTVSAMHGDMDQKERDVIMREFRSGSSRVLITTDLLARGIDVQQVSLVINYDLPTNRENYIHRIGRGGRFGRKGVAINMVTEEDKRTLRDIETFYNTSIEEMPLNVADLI

The exact form of at least one protein or probe is not confirmed.

Regarding “GGGAGACAAGAAUAAAACGCUCAAGGGGACCGCGCCCCACAUGUGAGUGAGGCCGAAACGUAGAUUCGACAGGAGGCUCACAACAGGCAGAUC [a4Aa20]”, the Kd was determined as 40 nM.

What is called Kd is the concentration at which binding is half-saturated.

The values are drawn from article PMC6769788.
